Experimental data as given in article PMC11704194.
These are yes or no findings as the source states them, for the method shown. Binding seen in cells or lysates may run through a third protein. These calls come from enrichment with a bait or labelling near it, and not all partners need be listed.

Target: T1, ANO1 (human) (UniProt Q5XXA6)
T1 sequence: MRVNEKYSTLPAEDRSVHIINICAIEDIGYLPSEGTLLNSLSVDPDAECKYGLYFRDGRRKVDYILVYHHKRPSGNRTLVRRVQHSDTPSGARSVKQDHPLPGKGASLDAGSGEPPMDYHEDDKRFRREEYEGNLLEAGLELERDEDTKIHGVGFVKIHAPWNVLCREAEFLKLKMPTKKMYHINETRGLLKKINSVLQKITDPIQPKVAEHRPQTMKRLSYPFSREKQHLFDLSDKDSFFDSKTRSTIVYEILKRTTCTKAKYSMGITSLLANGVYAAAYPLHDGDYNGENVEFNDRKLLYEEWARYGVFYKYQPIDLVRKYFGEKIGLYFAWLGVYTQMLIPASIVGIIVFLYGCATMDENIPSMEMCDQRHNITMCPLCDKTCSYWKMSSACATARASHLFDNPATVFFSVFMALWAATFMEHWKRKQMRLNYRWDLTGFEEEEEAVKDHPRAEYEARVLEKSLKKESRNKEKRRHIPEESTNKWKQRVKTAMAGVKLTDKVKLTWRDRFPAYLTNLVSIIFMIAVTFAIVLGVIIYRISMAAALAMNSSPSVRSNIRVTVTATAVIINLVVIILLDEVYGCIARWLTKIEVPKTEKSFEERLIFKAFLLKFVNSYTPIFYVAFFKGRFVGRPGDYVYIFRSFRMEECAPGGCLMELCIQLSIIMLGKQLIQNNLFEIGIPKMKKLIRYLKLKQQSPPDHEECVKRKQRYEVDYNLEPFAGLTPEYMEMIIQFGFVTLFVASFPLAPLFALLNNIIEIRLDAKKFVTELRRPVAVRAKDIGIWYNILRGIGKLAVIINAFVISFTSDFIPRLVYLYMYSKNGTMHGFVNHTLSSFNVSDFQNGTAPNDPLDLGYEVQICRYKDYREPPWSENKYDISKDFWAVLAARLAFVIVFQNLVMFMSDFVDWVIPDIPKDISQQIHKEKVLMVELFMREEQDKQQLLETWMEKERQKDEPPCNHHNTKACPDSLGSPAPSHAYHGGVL
Test: affinity purification with mass spectrometry; IP-MS: 2 mg lysate of SNU-478-ANO1-OE and SNU-478-vector cells in 0.5% NETN buffer (0.5% Nonidet P-40, 50 mM Tris-HCl pH 7.4, 150 mM NaCl, 1 mM EDTA); anti-ANO1/TMEM16A polyclonal antibody overnight at 4 °C, Protein A magnetic beads, on-bead tryptic digestion, MS

binding: binds
B1: PRKCI (protein, UniProt P41743 1-596)
chain: MPTQRDSSTMSHTVAGGGSGDHSHQVRVKAYYRGDIMITHFEPSISFEGLCNEVRDMCSFDNEQLFTMKWIDEEGDPCTVSSQLELEEAFRLYELNKDSELLIHVFPCVPERPGMPCPGEDKSIYRRGARRWRKLYCANGHTFQAKRFNRRAHCAICTDRIWGLGRQGYKCINCKLLVHKKCHKLVTIECGRHSLPQEPVMPMDQSSMHSDHAQTVIPYNPSSHESLDQVGEEKEAMNTRESGKASSSLGLQDFDLLRVIGRGSYAKVLLVRLKKTDRIYAMKVVKKELVNDDEDIDWVQTEKHVFEQASNHPFLVGLHSCFQTESRLFFVIEYVNGGDLMFHMQRQRKLPEEHARFYSAEISLALNYLHERGIIYRDLKLDNVLLDSEGHIKLTDYGMCKEGLRPGDTTSTFCGTPNYIAPEILRGEDYGFSVDWWALGVLMFEMMAGRSPFDIVGSSDNPDQNTEDYLFQVILEKQIRIPRSLSVKAASVLKSFLNKDPKERLGCHPQTGFADIQGHPFFRNVDWDMMEQKQVVPPFKPNISGEFGLDNFDSQFTNEPVQLTPDDDDIVRKIDQSEFEGFEYINPLLMSAEECV
